Assay results as given in patent publication US20150374676A1, “HELICASE-PRIMASE INHIBITORS FOR USE IN A METHOD OF TREATING ALZHEIMER'S DISEASE” (AICURIS GMBH & CO. KG, priority 2013, published 2015).
The name of at least one read-out is uncertain.

Assay type: in vivo, mice
Settings: single oral dose of 10 mg/kg; entire dosing interval of 24 h

SMILES: Cc1nc(N(C)C(=O)Cc2ccc(-c3ccccn3)cc2)sc1S(N)(=O)=O [N-[5-(aminosulfonyl)-4-methyl-1,3-thiazol-2-yl]-N-methyl-2-[4-(2-pyridinyl)phenyl]acetamid]
- plasma concentrations in mice relative to cell culture EC90: well above the cell culture EC90 adjusted for protein binding
